Test results: article PMC4387756
These are yes or no findings as the source states them, for the method shown. Binding seen in cells or lysates may run through a third protein. Some binding calls cover weakened binding; strength is not graded here.

Protein sequences, listed by entry. Tags and fused reporters are not part of them.
UniProt P51788: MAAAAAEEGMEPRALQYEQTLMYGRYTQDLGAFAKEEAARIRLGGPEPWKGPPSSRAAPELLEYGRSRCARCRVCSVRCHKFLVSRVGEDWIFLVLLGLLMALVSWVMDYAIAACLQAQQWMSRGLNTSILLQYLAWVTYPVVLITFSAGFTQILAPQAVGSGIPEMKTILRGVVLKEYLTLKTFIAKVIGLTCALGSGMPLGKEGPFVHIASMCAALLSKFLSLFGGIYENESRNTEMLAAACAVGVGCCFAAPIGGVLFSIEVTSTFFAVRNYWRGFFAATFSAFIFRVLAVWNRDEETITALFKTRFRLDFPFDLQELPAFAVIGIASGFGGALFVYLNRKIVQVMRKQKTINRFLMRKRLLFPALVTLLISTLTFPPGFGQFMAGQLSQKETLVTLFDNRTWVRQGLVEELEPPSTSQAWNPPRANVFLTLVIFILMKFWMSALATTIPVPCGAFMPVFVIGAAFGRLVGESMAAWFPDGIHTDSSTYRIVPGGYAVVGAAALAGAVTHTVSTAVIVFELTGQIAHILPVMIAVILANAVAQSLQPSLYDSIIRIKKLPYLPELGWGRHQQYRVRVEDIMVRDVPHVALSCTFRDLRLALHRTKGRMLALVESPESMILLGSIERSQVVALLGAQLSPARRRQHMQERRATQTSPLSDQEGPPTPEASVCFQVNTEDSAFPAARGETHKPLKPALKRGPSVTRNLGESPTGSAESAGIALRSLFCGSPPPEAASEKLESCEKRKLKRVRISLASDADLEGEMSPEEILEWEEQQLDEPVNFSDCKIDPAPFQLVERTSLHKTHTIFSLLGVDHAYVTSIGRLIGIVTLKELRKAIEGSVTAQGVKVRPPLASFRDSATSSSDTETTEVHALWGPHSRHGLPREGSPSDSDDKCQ

Columns and labels:
[1] = biological target: ClCN2 (chloride channel ClCN2), endogenous (human (endogenous in CFBE)) (UniProt P51788); experiment: co-IP; endogenous ClCN2 immunoprecipitated from polarized CFBE cell lysates (protein A/G sepharose beads), blot for ENaCγ; control conditions or 10 mmol/L MβCD on the apical surface for 30 min at 37°C (interaction decreased)
[2] = biological target: full-length FLAG-tagged ClCN2 (WT-ClC2) (UniProt P51788); experiment: co-IP; FLAG-tagged wild-type or truncated ClCN2 immunoprecipitated with 1.5 μg FLAG antibody and protein A/G sepharose beads from transfected polarized CFBE cell lysates, blot for endogenous ENaCγ; normalised to the FLAG pulldown

B1: epithelial sodium channel gamma subunit (ENaCγ), endogenous (protein, UniProt P51170 1-649)
chain: MAPGEKIKAKIKKNLPVTGPQAPTIKELMRWYCLNTNTHGCRRIVVSRGRLRRLLWIGFTLTAVALILWQCALLVFSFYTVSVSIKVHFRKLDFPAVTICNINPYKYSTVRHLLADLEQETREALKSLYGFPESRKRREAESWNSVSEGKQPRFSHRIPLLIFDQDEKGKARDFFTGRKRKVGGSIIHKASNVMHIESKQVVGFQLCSNDTSDCATYTFSSGINAIQEWYKLHYMNIMAQVPLEKKINMSYSAEELLVTCFFDGVSCDARNFTLFHHPMHGNCYTFNNRENETILSTSMGGSEYGLQVILYINEEEYNPFLVSSTGAKVIIHRQDEYPFVEDVGTEIETAMVTSIGMHLTESFKLSEPYSQCTEDGSDVPIRNIYNAAYSLQICLHSCFQTKMVEKCGCAQYSQPLPPAANYCNYQQHPNWMYCYYQLHRAFVQEELGCQSVCKEACSFKEWTLTTSLAQWPSVVSEKWLLPVLTWDQGRQVNKKLNKTDLAKLLIFYKDLNQRSIMESPANSIEMLLSNFGGQLGLWMSCSVVCVIEIIEVFFIDFFSIIARRQWQKAKEWWAWKQAPPCPEAPRSPQGQDNPALDIDDDLPTFNSALHLPPALGTQVPGTPPPKYNTLRLERAFSNQLTDTQMLDEL
binding [1]: binds
binding [2]: binds
